# Measured values from the supplement of paper PMC12067093, “Discovery and optimisation of a covalent ligand for TRIM25 and its application to targeted protein ubiquitination” (Chemical Science, 2025).
# Amino acid sequences for entries named in this document (tags omitted). A change or cut given only in a name is not applied to a line headed by its entry.
# UniProt Q7Z4H7: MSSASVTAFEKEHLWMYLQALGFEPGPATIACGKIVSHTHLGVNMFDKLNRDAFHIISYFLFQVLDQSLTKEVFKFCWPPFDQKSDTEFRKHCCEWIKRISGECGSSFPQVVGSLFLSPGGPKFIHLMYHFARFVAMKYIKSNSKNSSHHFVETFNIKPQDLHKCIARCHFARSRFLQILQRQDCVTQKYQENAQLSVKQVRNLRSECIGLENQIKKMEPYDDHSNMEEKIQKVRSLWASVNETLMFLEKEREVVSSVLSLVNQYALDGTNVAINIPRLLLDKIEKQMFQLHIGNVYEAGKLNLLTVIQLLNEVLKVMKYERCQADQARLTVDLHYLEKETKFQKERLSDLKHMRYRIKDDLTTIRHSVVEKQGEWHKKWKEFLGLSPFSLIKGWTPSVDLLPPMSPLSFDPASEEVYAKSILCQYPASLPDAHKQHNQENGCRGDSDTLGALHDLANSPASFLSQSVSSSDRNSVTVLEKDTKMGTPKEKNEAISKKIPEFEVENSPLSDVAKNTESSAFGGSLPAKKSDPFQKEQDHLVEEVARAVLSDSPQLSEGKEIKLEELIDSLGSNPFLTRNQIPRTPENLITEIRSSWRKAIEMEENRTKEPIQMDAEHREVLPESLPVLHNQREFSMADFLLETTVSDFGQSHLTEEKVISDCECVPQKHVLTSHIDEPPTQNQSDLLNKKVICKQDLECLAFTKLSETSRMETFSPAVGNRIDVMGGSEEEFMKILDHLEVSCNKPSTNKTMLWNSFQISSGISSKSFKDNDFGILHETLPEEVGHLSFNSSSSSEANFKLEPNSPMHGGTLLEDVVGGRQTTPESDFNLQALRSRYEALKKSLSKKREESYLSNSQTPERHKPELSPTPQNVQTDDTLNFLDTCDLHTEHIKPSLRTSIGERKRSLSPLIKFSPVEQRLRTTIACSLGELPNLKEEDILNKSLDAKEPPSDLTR
# UniProt O94927: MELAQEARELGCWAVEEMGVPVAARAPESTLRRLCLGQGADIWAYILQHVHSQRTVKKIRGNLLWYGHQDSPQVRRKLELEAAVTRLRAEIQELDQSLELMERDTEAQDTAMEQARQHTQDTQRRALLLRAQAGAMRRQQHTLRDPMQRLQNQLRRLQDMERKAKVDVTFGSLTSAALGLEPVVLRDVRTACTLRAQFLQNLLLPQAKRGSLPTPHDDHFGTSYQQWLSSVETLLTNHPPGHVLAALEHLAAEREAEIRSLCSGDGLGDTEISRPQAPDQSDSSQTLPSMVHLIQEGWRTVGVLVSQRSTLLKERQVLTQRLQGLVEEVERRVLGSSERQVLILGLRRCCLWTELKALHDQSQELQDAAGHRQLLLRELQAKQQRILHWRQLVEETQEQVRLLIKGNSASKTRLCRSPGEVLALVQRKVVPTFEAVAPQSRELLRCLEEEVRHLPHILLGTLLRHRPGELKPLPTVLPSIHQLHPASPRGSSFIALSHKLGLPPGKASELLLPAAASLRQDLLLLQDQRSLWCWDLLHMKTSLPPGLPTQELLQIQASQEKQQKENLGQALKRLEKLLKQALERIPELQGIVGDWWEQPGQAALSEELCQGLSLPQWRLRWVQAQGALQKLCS
# UniProt Q8NEC7: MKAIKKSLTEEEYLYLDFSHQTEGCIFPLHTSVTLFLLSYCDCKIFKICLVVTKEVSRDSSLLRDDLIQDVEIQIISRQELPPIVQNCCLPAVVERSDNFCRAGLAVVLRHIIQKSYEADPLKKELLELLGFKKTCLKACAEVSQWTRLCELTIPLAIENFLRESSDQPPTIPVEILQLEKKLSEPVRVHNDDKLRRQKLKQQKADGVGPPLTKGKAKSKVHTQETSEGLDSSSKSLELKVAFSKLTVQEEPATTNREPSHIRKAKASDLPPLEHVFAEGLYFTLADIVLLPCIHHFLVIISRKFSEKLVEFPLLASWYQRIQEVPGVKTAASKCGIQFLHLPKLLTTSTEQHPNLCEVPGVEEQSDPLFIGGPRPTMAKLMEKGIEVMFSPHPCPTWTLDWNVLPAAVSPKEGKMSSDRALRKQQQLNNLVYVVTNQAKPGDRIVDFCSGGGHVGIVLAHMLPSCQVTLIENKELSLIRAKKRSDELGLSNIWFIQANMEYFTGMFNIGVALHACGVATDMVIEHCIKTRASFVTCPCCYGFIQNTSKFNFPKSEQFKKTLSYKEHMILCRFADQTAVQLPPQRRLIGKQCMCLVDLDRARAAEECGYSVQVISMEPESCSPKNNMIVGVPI
# UniProt P78417: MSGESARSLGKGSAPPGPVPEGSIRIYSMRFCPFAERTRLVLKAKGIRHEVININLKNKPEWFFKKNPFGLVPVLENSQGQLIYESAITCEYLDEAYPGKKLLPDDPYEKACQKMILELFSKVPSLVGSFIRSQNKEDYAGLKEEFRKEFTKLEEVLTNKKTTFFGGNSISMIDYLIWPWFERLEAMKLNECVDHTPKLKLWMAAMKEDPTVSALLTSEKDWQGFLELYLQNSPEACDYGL
# UniProt Q92664: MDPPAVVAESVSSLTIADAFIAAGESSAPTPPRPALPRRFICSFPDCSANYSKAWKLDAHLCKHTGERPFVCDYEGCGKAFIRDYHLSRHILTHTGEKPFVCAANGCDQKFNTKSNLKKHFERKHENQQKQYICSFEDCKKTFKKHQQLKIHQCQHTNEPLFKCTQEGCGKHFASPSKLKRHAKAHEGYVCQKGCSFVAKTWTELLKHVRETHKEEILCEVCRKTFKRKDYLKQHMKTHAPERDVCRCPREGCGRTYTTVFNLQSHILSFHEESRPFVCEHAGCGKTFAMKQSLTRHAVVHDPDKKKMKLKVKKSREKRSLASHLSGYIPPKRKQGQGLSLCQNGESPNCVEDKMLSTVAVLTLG
# UniProt Q9NYZ3: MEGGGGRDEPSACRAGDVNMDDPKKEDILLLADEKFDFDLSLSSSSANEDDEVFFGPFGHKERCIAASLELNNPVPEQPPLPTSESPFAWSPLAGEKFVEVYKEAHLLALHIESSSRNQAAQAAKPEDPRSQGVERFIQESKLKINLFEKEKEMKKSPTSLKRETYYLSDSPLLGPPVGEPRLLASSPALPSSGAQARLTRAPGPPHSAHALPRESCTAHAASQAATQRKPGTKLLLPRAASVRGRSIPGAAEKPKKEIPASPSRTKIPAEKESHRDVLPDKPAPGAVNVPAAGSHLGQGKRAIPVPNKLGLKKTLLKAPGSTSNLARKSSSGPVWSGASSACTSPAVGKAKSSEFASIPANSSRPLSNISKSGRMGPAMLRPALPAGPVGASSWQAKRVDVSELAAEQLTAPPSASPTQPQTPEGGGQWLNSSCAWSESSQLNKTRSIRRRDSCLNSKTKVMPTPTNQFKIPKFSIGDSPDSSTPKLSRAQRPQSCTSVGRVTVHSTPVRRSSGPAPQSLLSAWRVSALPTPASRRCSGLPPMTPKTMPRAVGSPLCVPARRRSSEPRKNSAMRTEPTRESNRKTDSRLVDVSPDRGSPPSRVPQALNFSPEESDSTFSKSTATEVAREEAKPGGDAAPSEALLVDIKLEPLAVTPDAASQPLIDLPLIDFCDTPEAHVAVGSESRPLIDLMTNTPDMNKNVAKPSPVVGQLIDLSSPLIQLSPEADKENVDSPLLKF
# UniProt P78347: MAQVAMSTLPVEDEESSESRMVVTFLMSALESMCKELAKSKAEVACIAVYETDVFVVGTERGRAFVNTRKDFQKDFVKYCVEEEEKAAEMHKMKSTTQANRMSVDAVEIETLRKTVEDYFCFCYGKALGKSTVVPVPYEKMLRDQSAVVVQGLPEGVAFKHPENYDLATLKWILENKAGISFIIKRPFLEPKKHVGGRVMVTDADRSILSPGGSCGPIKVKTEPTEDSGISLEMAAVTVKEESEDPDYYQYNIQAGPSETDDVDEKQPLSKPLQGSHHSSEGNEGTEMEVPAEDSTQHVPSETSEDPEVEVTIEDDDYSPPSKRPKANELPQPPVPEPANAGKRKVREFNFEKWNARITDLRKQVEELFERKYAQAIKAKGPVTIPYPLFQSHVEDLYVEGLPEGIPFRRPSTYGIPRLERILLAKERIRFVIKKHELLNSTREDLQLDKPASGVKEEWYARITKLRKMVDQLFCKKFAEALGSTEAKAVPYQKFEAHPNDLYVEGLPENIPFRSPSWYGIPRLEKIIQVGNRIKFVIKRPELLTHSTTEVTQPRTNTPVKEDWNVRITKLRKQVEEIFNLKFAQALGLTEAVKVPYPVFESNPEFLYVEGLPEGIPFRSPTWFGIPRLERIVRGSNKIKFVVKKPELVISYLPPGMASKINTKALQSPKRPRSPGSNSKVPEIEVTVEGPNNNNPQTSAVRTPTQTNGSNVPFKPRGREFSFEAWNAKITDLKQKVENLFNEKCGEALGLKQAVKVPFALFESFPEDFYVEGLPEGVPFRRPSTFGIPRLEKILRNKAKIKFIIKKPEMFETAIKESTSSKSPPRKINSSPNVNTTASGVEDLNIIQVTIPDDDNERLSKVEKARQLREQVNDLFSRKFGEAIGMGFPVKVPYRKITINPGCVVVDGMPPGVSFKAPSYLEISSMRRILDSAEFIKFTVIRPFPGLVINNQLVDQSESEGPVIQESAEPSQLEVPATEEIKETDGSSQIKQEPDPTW
# UniProt Q96SL4: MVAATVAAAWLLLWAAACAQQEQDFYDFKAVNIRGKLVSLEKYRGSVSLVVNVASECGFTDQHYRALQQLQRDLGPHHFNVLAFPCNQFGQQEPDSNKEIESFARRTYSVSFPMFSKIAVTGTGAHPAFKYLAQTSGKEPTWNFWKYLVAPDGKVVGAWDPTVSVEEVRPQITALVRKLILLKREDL
# UniProt Q9BT25: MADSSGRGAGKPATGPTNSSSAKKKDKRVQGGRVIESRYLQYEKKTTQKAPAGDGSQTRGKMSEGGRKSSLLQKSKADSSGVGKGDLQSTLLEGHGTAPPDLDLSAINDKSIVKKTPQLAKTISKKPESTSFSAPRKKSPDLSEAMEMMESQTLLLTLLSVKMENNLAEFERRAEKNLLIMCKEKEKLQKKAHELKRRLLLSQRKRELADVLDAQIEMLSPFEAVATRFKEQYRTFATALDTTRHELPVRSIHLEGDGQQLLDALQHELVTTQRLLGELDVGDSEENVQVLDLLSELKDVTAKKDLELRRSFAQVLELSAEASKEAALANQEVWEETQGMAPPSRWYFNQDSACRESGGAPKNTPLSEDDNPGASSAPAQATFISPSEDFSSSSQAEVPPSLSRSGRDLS
# UniProt O75367, whole entry, looked up: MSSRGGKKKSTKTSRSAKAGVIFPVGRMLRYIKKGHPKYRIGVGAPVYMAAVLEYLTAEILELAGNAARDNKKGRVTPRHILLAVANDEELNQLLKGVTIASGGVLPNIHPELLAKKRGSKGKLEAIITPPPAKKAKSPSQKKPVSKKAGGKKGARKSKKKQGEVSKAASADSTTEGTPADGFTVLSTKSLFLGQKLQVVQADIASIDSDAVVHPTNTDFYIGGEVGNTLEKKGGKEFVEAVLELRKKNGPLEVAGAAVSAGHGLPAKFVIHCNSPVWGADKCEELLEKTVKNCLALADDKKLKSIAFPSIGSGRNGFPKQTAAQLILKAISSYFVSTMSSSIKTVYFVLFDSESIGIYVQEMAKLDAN
# UniProt P21266: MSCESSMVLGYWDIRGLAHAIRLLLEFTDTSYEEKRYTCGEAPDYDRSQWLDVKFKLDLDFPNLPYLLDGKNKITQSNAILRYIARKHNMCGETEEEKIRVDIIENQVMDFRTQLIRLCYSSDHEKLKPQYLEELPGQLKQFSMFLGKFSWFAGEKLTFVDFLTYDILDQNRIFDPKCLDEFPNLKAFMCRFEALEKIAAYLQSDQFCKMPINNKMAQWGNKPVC
# UniProt Q68CZ6: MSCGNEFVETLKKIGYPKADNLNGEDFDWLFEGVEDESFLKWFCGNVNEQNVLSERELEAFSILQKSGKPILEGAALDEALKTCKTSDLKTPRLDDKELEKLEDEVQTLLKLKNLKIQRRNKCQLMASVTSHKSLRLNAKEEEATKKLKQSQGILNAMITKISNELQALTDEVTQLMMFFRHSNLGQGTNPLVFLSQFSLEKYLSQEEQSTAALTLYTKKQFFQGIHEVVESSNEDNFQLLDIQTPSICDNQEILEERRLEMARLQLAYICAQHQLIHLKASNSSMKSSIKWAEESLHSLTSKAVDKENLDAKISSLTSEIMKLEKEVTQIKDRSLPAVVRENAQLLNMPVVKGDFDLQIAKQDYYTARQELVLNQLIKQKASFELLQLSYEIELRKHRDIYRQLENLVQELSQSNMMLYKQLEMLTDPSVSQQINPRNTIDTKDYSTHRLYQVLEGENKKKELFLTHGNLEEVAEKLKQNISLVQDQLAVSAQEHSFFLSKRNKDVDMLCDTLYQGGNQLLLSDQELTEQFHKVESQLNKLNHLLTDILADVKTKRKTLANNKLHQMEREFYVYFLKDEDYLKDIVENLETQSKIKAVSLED
# UniProt P52657, whole entry, looked up: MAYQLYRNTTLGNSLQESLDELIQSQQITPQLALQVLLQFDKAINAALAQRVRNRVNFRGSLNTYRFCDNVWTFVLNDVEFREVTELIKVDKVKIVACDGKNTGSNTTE
# The list shows a part of the results.
# Compound: Cc1cc(ccc1-c1ccccc1)C(=O)N1CCCN(CC1)C(=O)CCl [compound 10]
# Assay: probe-labelled cysteine peptide fold change vs DMSO (competition) (log2 fold change); higher = less target engagement (more negative = stronger competition)
# Settings: 50 µM; THP-1; incubation time: 4 h
# 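Also: competitive profiling in live THP-1 cells: cysteine peptides tagged with an iodoacetamide desthiobiotin (IA-DTB) probe, intensity after compound treatment relative to DMSO-treated cells.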
row,Target,probe-labelled cysteine peptide fold change
1,HAUS6_Q7Z4H7_743_ILDHLEVSCNKPSTNK (UniProt Q7Z4H7),-0.362
2,HAUS5_O94927_446_CLEEEVR (UniProt O94927),-0.0311
3,GPT2_Q8TD30_432_LTEDLFNQVPGIHCNPLQGAMYAFPR (UniProt Q8TD30),-0.151
4,GRK4_P32298_204_GGFGEVCACQVR (UniProt P32298),0.00267
5,GSTCD_Q8NEC7_571_EHMILCR (UniProt Q8NEC7),-0.165
6,GTF3C5_Q9Y5Q8_242_RVCTNPVDR (UniProt Q9Y5Q8),0.00204
7,GSTO1_P78417_192_LNECVDHTPK (UniProt P78417),0.0717
8,GTF3A_Q92664_222_ETHKEEILCEVCR (UniProt Q92664),-0.13
9,GSR_P00390_102_LGGTCVNVGCVPK (UniProt P00390),-0.149
10,GSDMD_P57764_191_FSLPGATCLQGEGQGHLSQK (UniProt P57764),-0.522
11,GRWD1_Q9BQ67_299_ACMLTTATAHDGDVNVISWSR (UniProt Q9BQ67),0.0139
12,GTSE1_Q9NYZ3_539_AVGSPLCVPAR (UniProt Q9NYZ3),0.516
13,GSDMD_P57764_38_VVQELDHGGEFIPVTSLQSSTGFQPYCLVVR (UniProt P57764),-0.201
14,GTF2I_P78347_215_SILSPGGSCGPIK (UniProt P78347),-0.252
15,GPX7_Q96SL4_86_DLGPHHFNVLAFPCNQFGQQEPDSNK (UniProt Q96SL4),-0.1
16,HAUS8_Q9BT25_182_NLLIMCK (UniProt Q9BT25),-0.141
17,H2AFY_O75367_276_FVIHCNSPVWGADKCEELLEK (UniProt O75367),-0.854
18,GSTM3_P21266_91_HNMCGETEEEK (UniProt P21266),0.121
19,HAUS3_Q68CZ6_123_CQLMASVTSHK (UniProt Q68CZ6),0.0224
20,GSS_P48637_294_CPDIATQLAGTKK (UniProt P48637),-0.204
21,GTF2B_Q00403_15_VTCPNHPDAILVEDYR (UniProt Q00403),0.227
22,GTF3C1_Q12789_853_AGVRPSSSGSAWEACSEAPSK (UniProt Q12789),-0.655
23,GTF2A2_P52657_68_FCDNVWTFVLNDVEFR (UniProt P52657),0.217

# Reformatted with tabs: part of the list above.
row	Target	probe-labelled cysteine peptide fold change
1	HAUS6_Q7Z4H7_743_ILDHLEVSCNKPSTNK (UniProt Q7Z4H7)	-0.362
2	HAUS5_O94927_446_CLEEEVR (UniProt O94927)	-0.0311
